Test results: article PMC7819943, “Rice protein-binding microarrays: a tool to detect cis-acting elements near promoter regions in rice”
Some of the results follow.

By UniProt entry, the sequences of proteins in these tests, tags left out.
UniProt Q0JBA9, entry or part of it: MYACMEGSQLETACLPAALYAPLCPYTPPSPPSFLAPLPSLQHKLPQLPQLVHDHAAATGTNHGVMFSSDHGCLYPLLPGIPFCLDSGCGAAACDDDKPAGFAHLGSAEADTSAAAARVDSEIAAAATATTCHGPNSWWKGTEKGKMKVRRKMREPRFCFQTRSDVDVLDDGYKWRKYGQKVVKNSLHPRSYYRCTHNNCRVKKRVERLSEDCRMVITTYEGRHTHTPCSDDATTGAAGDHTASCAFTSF

target: OsWRKY34 (Oryza sativa, UniProt Q0JBA9 1-250); experiment: protein-binding microarray (RPBM); PBS, 2% BSA, 51.3 ng/ul salmon testes DNA, 50 uM zinc acetate, 200 nM TF, 25 C, 1 h; high values mean tight binding; details: protein: recombinant; tags: N-terminal polyhistidine and DsRed monomer fusion (pET32a); label: CyDye5-dUTP incorporated in the synthesized complementary strand; 3' TTTTT single-stranded linker to array surface; dsDNA, one strand shown
Procedure, shortened: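 Transcription factors, each fused N-terminally to a polyhistidine tag and DsRed, were expressed in E. coli BL21-CodonPlus and purified on Ni–NTA. A custom Agilent array was made double-stranded by primer extension with Cy5-dUTP and blocked with 2% BSA. It was incubated with 200 nM protein in PBS, 2% BSA, salmon testes DNA and 50 µM zinc acetate at 25 °C for 1 h, then washed. The binding signal is per-feature fluorescence intensity (arbitrary units) read on an Axon 4000B scanner.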

Sequence | binding signal
ATGTGTCGCCGCGTCATCGTGCCTATCTGATCTTTCTTCACGGAGTCACCTAGTGCAG | 11100 fluorescence intensity (a.u.)
CATCTCCGCCTTCGTGTTCCTCTTCTTCTCTCCTCCTCCCCGGAGTCACCTAGTGCAG | 9050 fluorescence intensity (a.u.)
CACCCATCTACTCTGTCTAATCGAATCAACATGTTTTCATCGGAGTCACCTAGTGCAG | 8440 fluorescence intensity (a.u.)
CTCTCTCTCTCTATCTTCACCTCGCATCGTTGGAGATATGCGGAGTCACCTAGTGCAG | 9580 fluorescence intensity (a.u.)
CCCGATCAACCACTCGCCATCCGTTTGTTTGGCGCCGAATCGGAGTCACCTAGTGCAG | 8940 fluorescence intensity (a.u.)
CGCCGATCCGGTCCATACTCGCTCCGTACGATCGTACCTCCGGAGTCACCTAGTGCAG | 10400 fluorescence intensity (a.u.)
AAGAGGTGAGAGTGGGAGGTGGTGGGGTTTATAACCGACGCGGAGTCACCTAGTGCAG | 10100 fluorescence intensity (a.u.)
CTCCAAGTCAATTTCTAATACAGTTGTACCCTTTCCTTAACGGAGTCACCTAGTGCAG | 8100 fluorescence intensity (a.u.)
TACCACCACTCGTCGTCCCGTCGTCCCTTGCAGCTTTGCTCGGAGTCACCTAGTGCAG | 10800 fluorescence intensity (a.u.)
GGTGCTTGTTTAATCAAAGCTTGCTATTTGGTACTTTTTTCGGAGTCACCTAGTGCAG | 8940 fluorescence intensity (a.u.)
CCTCCCGCCGCCTCTCCGCCCGTCCACCGCGCCGCCGCCGCGGAGTCACCTAGTGCAG | 8070 fluorescence intensity (a.u.)
TACGTTGGGCTATCCGAAATCTCATCTCTCGCCCAATCCGCGGAGTCACCTAGTGCAG | 11100 fluorescence intensity (a.u.)
ATCATTGTCTGACATTTCTATGGCCCGGTCACTGTTCCATCGGAGTCACCTAGTGCAG | 9500 fluorescence intensity (a.u.)
AACGACAGAGGTCGCACATCTCGCATATTCTTGTTCTTTTCGGAGTCACCTAGTGCAG | 8830 fluorescence intensity (a.u.)
CGCCCCTTGCCGCTTGCCGCCTCGCCCGCTCGAGCTCATCCGGAGTCACCTAGTGCAG | 8390 fluorescence intensity (a.u.)
AAGCGTAACATCCTACTCCTGTATTTGGTTGATTCTGTGACGGAGTCACCTAGTGCAG | 8950 fluorescence intensity (a.u.)
CCGTCTCCACCTCCACCGCGCCGGCGCCGTCCTTCACCGCCGGAGTCACCTAGTGCAG | 8530 fluorescence intensity (a.u.)
TGCTTGGATTGAGGGATTGATTGATTTCTTCTCTGAACTTCGGAGTCACCTAGTGCAG | 10400 fluorescence intensity (a.u.)
TGGTCCTGTTTATTTTAACACCTTTCCCGATTTTTCTGTACGGAGTCACCTAGTGCAG | 9800 fluorescence intensity (a.u.)
CCTACCACCCATACACAATTGTCTTTCTTTCAACTTGCCGCGGAGTCACCTAGTGCAG | 9840 fluorescence intensity (a.u.)
TTTGCTCCACACCACACAACACACATTGTACGGCGTTGCTCGGAGTCACCTAGTGCAG | 8210 fluorescence intensity (a.u.)
GCTTCCATCCTTCCAACGAATCCACGCCGTCCATTCGCCACGGAGTCACCTAGTGCAG | 12800 fluorescence intensity (a.u.)
GTTCATTTCCTTGGGGTTTAATTCTTGGTTGCCAGCGAGCCGGAGTCACCTAGTGCAG | 9620 fluorescence intensity (a.u.)
CCACTATCTACCTGCTTCATCAGCTTCACAAGTTCTGTTCCGGAGTCACCTAGTGCAG | 11500 fluorescence intensity (a.u.)
GTGGTAGTGAATTTGCCATCCAACCTACTTCTATTAAAAGCGGAGTCACCTAGTGCAG | 8430 fluorescence intensity (a.u.)
GCCCCGTCCATTTCCCGTCCACTTGACACTGATGCTTCGCCGGAGTCACCTAGTGCAG | 15000 fluorescence intensity (a.u.)
CGCGTCCTTTGGCCTCGTCTCACTCCATTCTCATTTCCCACGGAGTCACCTAGTGCAG | 10600 fluorescence intensity (a.u.)

Some of the entries so far, as tab-separated lines:
Sequence	binding signal
CACCCATCTACTCTGTCTAATCGAATCAACATGTTTTCATCGGAGTCACCTAGTGCAG	8440 fluorescence intensity (a.u.)
CTCTCTCTCTCTATCTTCACCTCGCATCGTTGGAGATATGCGGAGTCACCTAGTGCAG	9580 fluorescence intensity (a.u.)
CGCCGATCCGGTCCATACTCGCTCCGTACGATCGTACCTCCGGAGTCACCTAGTGCAG	10400 fluorescence intensity (a.u.)
CTCCAAGTCAATTTCTAATACAGTTGTACCCTTTCCTTAACGGAGTCACCTAGTGCAG	8100 fluorescence intensity (a.u.)
GGTGCTTGTTTAATCAAAGCTTGCTATTTGGTACTTTTTTCGGAGTCACCTAGTGCAG	8940 fluorescence intensity (a.u.)
TACGTTGGGCTATCCGAAATCTCATCTCTCGCCCAATCCGCGGAGTCACCTAGTGCAG	11100 fluorescence intensity (a.u.)
ATCATTGTCTGACATTTCTATGGCCCGGTCACTGTTCCATCGGAGTCACCTAGTGCAG	9500 fluorescence intensity (a.u.)
CGCCCCTTGCCGCTTGCCGCCTCGCCCGCTCGAGCTCATCCGGAGTCACCTAGTGCAG	8390 fluorescence intensity (a.u.)
TGCTTGGATTGAGGGATTGATTGATTTCTTCTCTGAACTTCGGAGTCACCTAGTGCAG	10400 fluorescence intensity (a.u.)
TGGTCCTGTTTATTTTAACACCTTTCCCGATTTTTCTGTACGGAGTCACCTAGTGCAG	9800 fluorescence intensity (a.u.)
CCTACCACCCATACACAATTGTCTTTCTTTCAACTTGCCGCGGAGTCACCTAGTGCAG	9840 fluorescence intensity (a.u.)
TTTGCTCCACACCACACAACACACATTGTACGGCGTTGCTCGGAGTCACCTAGTGCAG	8210 fluorescence intensity (a.u.)
GCTTCCATCCTTCCAACGAATCCACGCCGTCCATTCGCCACGGAGTCACCTAGTGCAG	12800 fluorescence intensity (a.u.)
GTTCATTTCCTTGGGGTTTAATTCTTGGTTGCCAGCGAGCCGGAGTCACCTAGTGCAG	9620 fluorescence intensity (a.u.)
CCACTATCTACCTGCTTCATCAGCTTCACAAGTTCTGTTCCGGAGTCACCTAGTGCAG	11500 fluorescence intensity (a.u.)
GTGGTAGTGAATTTGCCATCCAACCTACTTCTATTAAAAGCGGAGTCACCTAGTGCAG	8430 fluorescence intensity (a.u.)

Continued.

Sequence | binding signal
CTGCTAATCACTCACGTATAGTTCGTACTTCATTTCTTCTCGGAGTCACCTAGTGCAG | 8130 fluorescence intensity (a.u.)
CTCCCCAACCCAACCCAAGCCTATCTCACAAACCCGCGCGCGGAGTCACCTAGTGCAG | 8160 fluorescence intensity (a.u.)
ATGCCCTAGTATATGTTGTTGCCTTTCTGTTTCAGTAGTCCGGAGTCACCTAGTGCAG | 8470 fluorescence intensity (a.u.)
CTGAGTTTTCGTGTCCAACTTTTTGACTGTCCGTCTTATACGGAGTCACCTAGTGCAG | 8880 fluorescence intensity (a.u.)
TCGCTTTTTACTTTTTATTTTTTTACACATCCGACTCAAACGGAGTCACCTAGTGCAG | 8260 fluorescence intensity (a.u.)
TACAACTTTATTTTTGGCAACTTTTTCATATGAGTTTATTCGGAGTCACCTAGTGCAG | 11100 fluorescence intensity (a.u.)
GTCCACTAATCTTCCAACCACGAGGAGCTACCAACCCACTCGGAGTCACCTAGTGCAG | 10700 fluorescence intensity (a.u.)
ATCCAATTTCTTACCCCGTTCGACTCCACTCGACTCGACCCGGAGTCACCTAGTGCAG | 10200 fluorescence intensity (a.u.)
TCTTGATCACAACATACACTTACCTCATTGGCACCTAGACCGGAGTCACCTAGTGCAG | 8160 fluorescence intensity (a.u.)
CTGGCACGCCCGCATCTCGTTAACCTTTGGACCTGCACTGCGGAGTCACCTAGTGCAG | 8570 fluorescence intensity (a.u.)
GGTCGACGTGGCGACGCCTTTTTGATGGTTTTTTTTTTCCCGGAGTCACCTAGTGCAG | 9000 fluorescence intensity (a.u.)
CGTAGCCTCCGCTCCGCCGCCGCGCTTCGCTGCCTTCGCTCGGAGTCACCTAGTGCAG | 10300 fluorescence intensity (a.u.)
ATGCACGCTTTTTTTTTTCCGCCGCGTGCCCCTTCCCTTACGGAGTCACCTAGTGCAG | 9640 fluorescence intensity (a.u.)
GGGATCTGAGGCGCGTTTCTTAATTTGCCTTCTCTTTGAGCGGAGTCACCTAGTGCAG | 9220 fluorescence intensity (a.u.)
AACTTGCTCTTACACACGCATTTATCGCACCCTTGACCGACGGAGTCACCTAGTGCAG | 10500 fluorescence intensity (a.u.)
TTCTCCCCTCCTCCAAGTTGCATCTCACTTTTCCTCCTTCCGGAGTCACCTAGTGCAG | 8050 fluorescence intensity (a.u.)
CATCGCCTCGCCTCTTCGTTTTCGGTTGCACGCTCGCTTGCGGAGTCACCTAGTGCAG | 11500 fluorescence intensity (a.u.)
TTACAATTTAAGGTATGCTCCATGTTGCTTATTCCTTACTCGGAGTCACCTAGTGCAG | 8040 fluorescence intensity (a.u.)
GACACCGCTCGTCTTCGTCAATCGAACAGTTCGATCAAGCCGGAGTCACCTAGTGCAG | 8480 fluorescence intensity (a.u.)
AACGGCTACTATCTCCATCTCTACCCCATCCGGGCCGTCCCGGAGTCACCTAGTGCAG | 9550 fluorescence intensity (a.u.)
TGGAATGGACGGATGGTTGGTTGGTTGGATGGATGACGTTCGGAGTCACCTAGTGCAG | 10300 fluorescence intensity (a.u.)
CAACTATTACTCTCTCCGGTTCCATATTAATTGACGTTTTCGGAGTCACCTAGTGCAG | 9300 fluorescence intensity (a.u.)
GTGCGTTTGTGTTCCTGTTGGGGATTGGCCAGTGAAATTACGGAGTCACCTAGTGCAG | 11400 fluorescence intensity (a.u.)
ATTCACCGCCACGACACTGGTATTTTTAATGAATATTTTTCGGAGTCACCTAGTGCAG | 8270 fluorescence intensity (a.u.)
TTAGGTGGCCCAGGAATTCACCATTTGCAACAGTTTTATCCGGAGTCACCTAGTGCAG | 8150 fluorescence intensity (a.u.)
CTTGAGTTTGTTAATATGGCTTGAGTTTGGTAATTAGGGGCGGAGTCACCTAGTGCAG | 12300 fluorescence intensity (a.u.)
CATGTACCGTGATTGACCCCAACACACACTACGCTACGTTCGGAGTCACCTAGTGCAG | 8140 fluorescence intensity (a.u.)
